Data: patent US6344351B2, “(R)-transaminase from arthrobacter” (Kaneka Corporation, priority 1995, dated 2002)
The name of at least one read-out is uncertain.

Test system: Arthrobacter species KNK168 strain
Experiment: Amino donor test; (R)-DMA formation by cultured cells
Assay type: cell-based
Conditions: 1% amino donor, 1% 1-(3,4-dimethoxyphenyl)-2-propanone, Triton X-100, pH 8.5, 35° C., 20 hours
Procedure: The cultured cells were harvested by centrifugation, and the harvested cells were suspended in a reaction mixture (pH 8.5) containing 1% of 1-(3,4-dimethoxyphenyl)-2-propanone, […] of Triton X-100, and 1% of an amino donor shown in Table 2. The components were reacted at 35° C. for 20 hours.

## NC(CO)Cc1ccccc1 (racemic) [(RS)-2-Amino-3-phenylpropanol]
  (R)-DMA Formed (%), amino group donor: 22.7%
